Assay results taken from paper doi:10.1101/2021.01.08.425994.
Results are given in words; binding and its absence hold for the method and conditions named. In cells and extracts the contact can be indirect. Some results given as binding are weak or reduced against the parent protein; the word gives no strength.

Sequences of proteins named here, by UniProt entry; tags and fusion partners are left off. A change or cut given only in a name is not applied to a line headed by its entry.
UniProt O08785: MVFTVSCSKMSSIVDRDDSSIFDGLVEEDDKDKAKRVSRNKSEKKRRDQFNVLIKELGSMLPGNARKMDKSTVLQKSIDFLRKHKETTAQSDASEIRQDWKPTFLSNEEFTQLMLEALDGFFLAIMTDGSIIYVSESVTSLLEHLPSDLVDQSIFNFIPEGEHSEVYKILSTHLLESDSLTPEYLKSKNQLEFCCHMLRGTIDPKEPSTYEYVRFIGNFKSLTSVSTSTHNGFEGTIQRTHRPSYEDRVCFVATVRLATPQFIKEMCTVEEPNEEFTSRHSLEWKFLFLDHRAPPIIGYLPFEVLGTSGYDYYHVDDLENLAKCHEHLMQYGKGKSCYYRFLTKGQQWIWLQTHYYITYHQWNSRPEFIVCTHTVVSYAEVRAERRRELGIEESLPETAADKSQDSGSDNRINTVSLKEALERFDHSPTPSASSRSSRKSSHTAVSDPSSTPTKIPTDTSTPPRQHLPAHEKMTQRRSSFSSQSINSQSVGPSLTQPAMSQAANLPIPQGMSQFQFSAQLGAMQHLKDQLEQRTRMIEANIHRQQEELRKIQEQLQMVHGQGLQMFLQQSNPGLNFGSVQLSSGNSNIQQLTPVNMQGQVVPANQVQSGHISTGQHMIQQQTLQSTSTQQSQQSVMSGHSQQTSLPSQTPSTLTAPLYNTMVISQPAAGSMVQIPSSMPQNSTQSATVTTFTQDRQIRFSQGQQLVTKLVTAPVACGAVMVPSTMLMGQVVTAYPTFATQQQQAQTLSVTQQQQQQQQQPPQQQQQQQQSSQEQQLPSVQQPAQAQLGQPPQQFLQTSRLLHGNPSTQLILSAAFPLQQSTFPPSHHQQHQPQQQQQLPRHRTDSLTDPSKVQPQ

Target: CLOCK:BMAL1 heterodimer (overexpressed) (not stated | mouse) (UniProt O08785)
Assay: co-IP

B1: human CRY1 wildtype (protein, UniProt Q16526 1-586)
chain: MGVNAVHWFRKGLRLHDNPALKECIQGADTIRCVYILDPWFAGSSNVGINRWRFLLQCLEDLDANLRKLNSRLFVIRGQPADVFPRLFKEWNITKLSIEYDSEPFGKERDAAIKKLATEAGVEVIVRISHTLYDLDKIIELNGGQPPLTYKRFQTLISKMEPLEIPVETITSEVIEKCTTPLSDDHDEKYGVPSLEELGFDTDGLSSAVWPGGETEALTRLERHLERKAWVANFERPRMNANSLLASPTGLSPYLRFGCLSCRLFYFKLTDLYKKVKKNSSPPLSLYGQLLWREFFYTAATNNPRFDKMEGNPICVQIPWDKNPEALAKWAEGRTGFPWIDAIMTQLRQEGWIHHLARHAVACFLTRGDLWISWEEGMKVFEELLLDADWSINAGSWMWLSCSSFFQQFFHCYCPVGFGRRTDPNGDYIRRYLPVLRGFPAKYIYDPWNAPEGIQKVAKCLIGVNYPKPMVNHAEASRLNIERMKQIYQQLSRYRGLGLLASVPSNPNGNGGFMGYSAENIPGCSSSGSCSQGSGILHYAHGDSQQTHLLKQGRSSMGTGLSGGKRPSQEEDTQSIGPKVQRQSTN
For B1, which binding is on record?
The binding was “binds”.
